Measurements as given in article PMC4231161.
Results are given in words; binding and its absence hold for the method and conditions named. Binding seen in cells or lysates may run through a third protein. For some of these results: A result given as binding can be weak or reduced; the word gives no strength. For some of these results: Sequences can lack the tags named with a protein.

T1: gliding-associated protein GAP45 (Toxoplasma gondii (endogenous in tachyzoites)) (UniProt Q7Z289)
T1 sequence: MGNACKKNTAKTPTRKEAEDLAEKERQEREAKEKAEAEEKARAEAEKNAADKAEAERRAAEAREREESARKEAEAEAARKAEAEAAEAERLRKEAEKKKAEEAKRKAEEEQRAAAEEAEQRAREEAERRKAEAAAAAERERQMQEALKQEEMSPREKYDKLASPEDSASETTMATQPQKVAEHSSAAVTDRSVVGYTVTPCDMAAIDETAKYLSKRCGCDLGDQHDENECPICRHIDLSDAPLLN

T2: GAP45Ty (second copy of GAP45 with a Ty tag) (Toxoplasma gondii) (UniProt Q7Z289)
T2 sequence: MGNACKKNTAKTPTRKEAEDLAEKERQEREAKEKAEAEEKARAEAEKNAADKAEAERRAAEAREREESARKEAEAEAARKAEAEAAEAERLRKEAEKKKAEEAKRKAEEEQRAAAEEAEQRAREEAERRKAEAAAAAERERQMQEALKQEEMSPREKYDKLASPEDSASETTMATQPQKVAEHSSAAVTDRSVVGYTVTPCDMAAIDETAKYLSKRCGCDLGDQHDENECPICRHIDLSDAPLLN


Experiments:
[1] = biological target: T1, gliding-associated protein GAP45 (Toxoplasma gondii (endogenous in tachyzoites)); experiment: condition: only in Ku80-KO parasites, where GAP80 is present; co-IP; polyclonal anti-GAP45 antibodies on [35S]-labelled Ku80-KO tachyzoites (GAP80 present), Triton X-100 lysate, autoradiography
[2] = biological target: T1, gliding-associated protein GAP45 (Toxoplasma gondii (endogenous in tachyzoites)); experiment: co-IP; polyclonal anti-GAP45 antibodies on [35S]-labelled GAP80-KO tachyzoites, Triton X-100 lysate, autoradiography
[3] = biological target: T2, GAP45Ty (second copy of GAP45 with a Ty tag) (Toxoplasma gondii); experiment: co-IP; [35S]-methionine/cysteine labelled tachyzoites lysed in CoIP buffer (1% Triton X-100, 50 mM Tris-HCl pH 8, 150 mM NaCl); tagged bait precipitated with monoclonal anti-Ty or anti-Myc and Protein A-Sepharose, 4 C; eluted proteins seen by autoradiography; also in MyoC-KO background and in GAP45-iKO +/- ATc
[4] = biological target: KI-MyoC-3Ty (MyoC C-terminally tagged at the endogenous locus) (Toxoplasma gondii); experiment: as above

Molecule	binding [1]	binding [2]	binding [3]	binding [4]
myosin C (MyoC)	no binding	binds	no binding	
gliding-associated protein GAP45 (protein, UniProt Q7Z289 1-245) MGNACKKNTAKTPTRKEAEDLAEKERQEREAKEKAEAEEKARAEAEKNAADKAEAERRAAEAREREESARKEAEAEAARKAEAEAAEAERLRKEAEKKKAEEAKRKAEEEQRAAAEEAEQRAREEAERRKAEAAAAAERERQMQEALKQEEMSPREKYDKLASPEDSASETTMATQPQKVAEHSSAAVTDRSVVGYTVTPCDMAAIDETAKYLSKRCGCDLGDQHDENECPICRHIDLSDAPLLN				no binding
